The list shows a part of the results. Residues, ends and D or L forms follow the SMILES beside them. *: point of attachment. Cbz = O=C(OCc1ccccc1)*
How the values were obtained:
Experiment in all cases: log2 fold change, soluble protein after heating vs DMSO (PISA); higher = thermal stabilisation; K562 cells, 10 uM, 30 min; active = over 0.2 and 3.5 SD of the protein, either way, in both replicates (recomputed)
erlotinib = compound: C#Cc1cccc(Nc2ncnc3cc(OCCOC)c(OCCOC)cc23)c1 [erlotinib]
Procedure, shortened: (§1)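 For each measurement, 10 μM compound was applied for 30 min to K562 cells at 2×10^6 cells/mL. Aliquots were heated for 3 min across 48°C-58°C, pooled, and extracted in PBS with 0.5% NP-40 at 4°C; the supernatant after 21,000xg for 90 min was soluble protein. This was quantified by TMTpro 16plex LC-MS/MS with channel sums equalised, and thermal stability was reported relative to control samples from duplicates, on a log2 fold-change scale.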

By UniProt entry, the sequences of proteins in these tests, tags left out. Where a name states a change or a piece, a line headed by the entry shows the natural chain unless it says otherwise.
UniProt Q13796: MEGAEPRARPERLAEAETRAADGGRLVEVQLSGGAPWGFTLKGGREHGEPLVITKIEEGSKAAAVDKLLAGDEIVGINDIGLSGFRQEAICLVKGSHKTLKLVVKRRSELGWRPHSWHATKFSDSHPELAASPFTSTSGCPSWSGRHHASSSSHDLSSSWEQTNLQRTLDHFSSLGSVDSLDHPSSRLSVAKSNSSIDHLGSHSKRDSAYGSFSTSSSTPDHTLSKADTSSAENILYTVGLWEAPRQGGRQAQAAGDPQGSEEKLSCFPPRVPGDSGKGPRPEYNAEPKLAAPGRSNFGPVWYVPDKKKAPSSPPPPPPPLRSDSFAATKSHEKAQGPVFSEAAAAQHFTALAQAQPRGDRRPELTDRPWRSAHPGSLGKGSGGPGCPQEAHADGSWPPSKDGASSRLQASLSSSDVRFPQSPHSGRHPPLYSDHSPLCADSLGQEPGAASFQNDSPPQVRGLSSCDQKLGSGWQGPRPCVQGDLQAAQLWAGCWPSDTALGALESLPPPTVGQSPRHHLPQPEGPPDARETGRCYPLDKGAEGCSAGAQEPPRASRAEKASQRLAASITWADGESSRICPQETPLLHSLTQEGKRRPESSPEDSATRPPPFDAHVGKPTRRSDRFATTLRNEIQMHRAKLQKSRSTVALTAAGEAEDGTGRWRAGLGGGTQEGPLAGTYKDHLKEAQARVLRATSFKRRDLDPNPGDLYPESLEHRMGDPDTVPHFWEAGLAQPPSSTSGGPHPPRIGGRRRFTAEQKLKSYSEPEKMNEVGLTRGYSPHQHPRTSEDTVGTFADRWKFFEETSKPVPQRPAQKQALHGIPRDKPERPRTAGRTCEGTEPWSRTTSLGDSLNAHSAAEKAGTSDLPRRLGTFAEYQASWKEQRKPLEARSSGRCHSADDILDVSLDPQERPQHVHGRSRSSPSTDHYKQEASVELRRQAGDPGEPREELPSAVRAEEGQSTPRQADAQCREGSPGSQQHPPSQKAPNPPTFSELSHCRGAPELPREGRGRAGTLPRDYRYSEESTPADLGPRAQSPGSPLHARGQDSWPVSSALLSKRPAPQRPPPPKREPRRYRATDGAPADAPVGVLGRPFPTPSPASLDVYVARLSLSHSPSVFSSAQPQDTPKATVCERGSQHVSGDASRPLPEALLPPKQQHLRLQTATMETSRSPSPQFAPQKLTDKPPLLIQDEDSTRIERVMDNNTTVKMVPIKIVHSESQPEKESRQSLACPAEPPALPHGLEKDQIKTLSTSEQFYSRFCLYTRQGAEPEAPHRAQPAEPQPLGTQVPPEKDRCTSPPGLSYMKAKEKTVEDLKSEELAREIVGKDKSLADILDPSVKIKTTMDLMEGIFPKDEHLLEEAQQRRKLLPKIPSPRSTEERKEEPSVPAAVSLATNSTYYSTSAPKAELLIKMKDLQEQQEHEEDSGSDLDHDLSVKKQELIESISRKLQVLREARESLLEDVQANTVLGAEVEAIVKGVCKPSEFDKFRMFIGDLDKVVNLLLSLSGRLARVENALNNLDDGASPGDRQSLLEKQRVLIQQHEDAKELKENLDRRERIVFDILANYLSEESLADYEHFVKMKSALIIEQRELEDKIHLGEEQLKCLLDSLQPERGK
UniProt Q9BRG2: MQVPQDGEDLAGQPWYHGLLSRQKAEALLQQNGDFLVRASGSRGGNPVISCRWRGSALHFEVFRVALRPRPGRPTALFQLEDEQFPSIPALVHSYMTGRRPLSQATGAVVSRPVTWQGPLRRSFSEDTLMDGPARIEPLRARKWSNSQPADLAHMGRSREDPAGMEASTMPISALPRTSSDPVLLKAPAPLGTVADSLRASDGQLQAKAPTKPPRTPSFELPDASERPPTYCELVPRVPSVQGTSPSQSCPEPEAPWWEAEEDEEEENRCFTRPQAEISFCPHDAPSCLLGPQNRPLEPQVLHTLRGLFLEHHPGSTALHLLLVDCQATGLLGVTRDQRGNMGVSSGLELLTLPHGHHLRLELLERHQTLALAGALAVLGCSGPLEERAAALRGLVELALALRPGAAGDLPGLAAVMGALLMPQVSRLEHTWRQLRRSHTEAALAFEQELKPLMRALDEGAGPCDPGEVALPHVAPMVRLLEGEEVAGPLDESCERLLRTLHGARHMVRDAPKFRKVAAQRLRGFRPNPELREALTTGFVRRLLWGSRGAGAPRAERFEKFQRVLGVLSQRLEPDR
UniProt P84101: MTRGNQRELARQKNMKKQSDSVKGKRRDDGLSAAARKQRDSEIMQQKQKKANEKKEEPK
UniProt P55822: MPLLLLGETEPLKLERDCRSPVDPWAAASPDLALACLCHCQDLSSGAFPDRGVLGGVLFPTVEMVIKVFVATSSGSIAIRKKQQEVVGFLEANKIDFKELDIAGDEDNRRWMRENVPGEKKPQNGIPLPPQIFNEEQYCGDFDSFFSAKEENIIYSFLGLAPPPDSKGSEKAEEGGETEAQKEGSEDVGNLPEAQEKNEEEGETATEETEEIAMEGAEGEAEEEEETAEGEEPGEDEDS
UniProt P49908, whole entry, looked up: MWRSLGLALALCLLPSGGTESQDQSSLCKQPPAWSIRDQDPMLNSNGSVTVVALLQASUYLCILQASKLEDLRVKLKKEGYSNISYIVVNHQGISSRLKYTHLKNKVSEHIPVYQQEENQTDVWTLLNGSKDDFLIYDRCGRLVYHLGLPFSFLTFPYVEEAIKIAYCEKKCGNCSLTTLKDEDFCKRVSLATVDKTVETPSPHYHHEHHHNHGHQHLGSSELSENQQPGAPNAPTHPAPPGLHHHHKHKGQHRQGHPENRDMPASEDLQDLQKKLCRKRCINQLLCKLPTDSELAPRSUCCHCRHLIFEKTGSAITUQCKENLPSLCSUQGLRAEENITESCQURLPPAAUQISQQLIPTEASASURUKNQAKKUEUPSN
UniProt Q8WVK7: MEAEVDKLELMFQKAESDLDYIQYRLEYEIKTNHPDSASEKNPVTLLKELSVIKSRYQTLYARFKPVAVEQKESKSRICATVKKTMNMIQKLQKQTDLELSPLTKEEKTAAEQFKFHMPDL
UniProt Q9NP50: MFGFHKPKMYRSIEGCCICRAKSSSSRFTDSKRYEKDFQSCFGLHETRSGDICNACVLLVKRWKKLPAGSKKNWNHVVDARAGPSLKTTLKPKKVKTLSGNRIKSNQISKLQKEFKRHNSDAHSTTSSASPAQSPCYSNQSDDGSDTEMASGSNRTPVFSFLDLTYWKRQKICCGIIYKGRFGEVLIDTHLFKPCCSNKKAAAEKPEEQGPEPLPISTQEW
UniProt Q9ULL8: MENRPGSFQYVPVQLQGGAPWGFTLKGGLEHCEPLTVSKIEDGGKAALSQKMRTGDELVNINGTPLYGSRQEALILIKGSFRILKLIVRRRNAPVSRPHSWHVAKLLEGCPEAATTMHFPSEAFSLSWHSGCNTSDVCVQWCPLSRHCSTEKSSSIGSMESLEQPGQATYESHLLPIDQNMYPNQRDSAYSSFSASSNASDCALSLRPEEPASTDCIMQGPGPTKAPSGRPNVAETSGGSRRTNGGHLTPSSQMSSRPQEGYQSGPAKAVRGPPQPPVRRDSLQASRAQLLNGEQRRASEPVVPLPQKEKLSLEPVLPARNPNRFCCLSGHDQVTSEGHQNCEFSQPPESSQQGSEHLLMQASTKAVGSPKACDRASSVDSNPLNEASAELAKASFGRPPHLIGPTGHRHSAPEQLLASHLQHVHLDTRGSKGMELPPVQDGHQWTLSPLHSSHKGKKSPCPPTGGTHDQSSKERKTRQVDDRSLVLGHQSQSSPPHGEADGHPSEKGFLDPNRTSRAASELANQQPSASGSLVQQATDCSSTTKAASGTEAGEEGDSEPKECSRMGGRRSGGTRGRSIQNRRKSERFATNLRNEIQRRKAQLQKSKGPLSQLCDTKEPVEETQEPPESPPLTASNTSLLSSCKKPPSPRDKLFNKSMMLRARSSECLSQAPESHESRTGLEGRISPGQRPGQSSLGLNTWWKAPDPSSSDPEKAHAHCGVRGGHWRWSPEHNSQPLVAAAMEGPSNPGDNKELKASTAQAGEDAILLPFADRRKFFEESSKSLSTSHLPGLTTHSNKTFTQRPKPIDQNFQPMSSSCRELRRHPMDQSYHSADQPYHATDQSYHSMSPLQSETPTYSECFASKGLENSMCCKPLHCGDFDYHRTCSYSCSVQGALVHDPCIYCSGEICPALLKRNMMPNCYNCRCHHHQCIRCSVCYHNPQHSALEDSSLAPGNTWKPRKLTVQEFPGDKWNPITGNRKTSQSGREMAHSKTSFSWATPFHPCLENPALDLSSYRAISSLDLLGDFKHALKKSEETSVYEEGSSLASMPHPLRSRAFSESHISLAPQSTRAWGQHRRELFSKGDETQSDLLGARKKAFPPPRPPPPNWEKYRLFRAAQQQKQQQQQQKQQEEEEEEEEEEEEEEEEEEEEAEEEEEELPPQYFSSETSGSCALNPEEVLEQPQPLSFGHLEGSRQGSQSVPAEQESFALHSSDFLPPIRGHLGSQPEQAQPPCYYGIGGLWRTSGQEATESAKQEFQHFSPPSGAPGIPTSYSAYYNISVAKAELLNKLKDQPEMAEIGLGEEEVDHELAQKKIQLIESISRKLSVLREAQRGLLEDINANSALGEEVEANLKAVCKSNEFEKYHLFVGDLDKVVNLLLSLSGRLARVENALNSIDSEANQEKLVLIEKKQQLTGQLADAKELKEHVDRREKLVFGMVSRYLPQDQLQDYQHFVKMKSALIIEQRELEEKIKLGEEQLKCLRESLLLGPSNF
UniProt O75635: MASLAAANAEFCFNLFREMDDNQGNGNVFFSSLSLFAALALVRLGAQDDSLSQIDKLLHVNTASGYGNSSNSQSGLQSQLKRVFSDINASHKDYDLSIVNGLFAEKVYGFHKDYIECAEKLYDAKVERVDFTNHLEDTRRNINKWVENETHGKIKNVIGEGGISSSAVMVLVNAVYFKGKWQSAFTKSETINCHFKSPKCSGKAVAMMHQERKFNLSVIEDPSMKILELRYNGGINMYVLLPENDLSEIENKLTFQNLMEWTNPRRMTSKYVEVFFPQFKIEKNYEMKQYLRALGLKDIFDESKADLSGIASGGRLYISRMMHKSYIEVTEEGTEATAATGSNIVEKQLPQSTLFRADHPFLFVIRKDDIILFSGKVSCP
UniProt Q86XK3: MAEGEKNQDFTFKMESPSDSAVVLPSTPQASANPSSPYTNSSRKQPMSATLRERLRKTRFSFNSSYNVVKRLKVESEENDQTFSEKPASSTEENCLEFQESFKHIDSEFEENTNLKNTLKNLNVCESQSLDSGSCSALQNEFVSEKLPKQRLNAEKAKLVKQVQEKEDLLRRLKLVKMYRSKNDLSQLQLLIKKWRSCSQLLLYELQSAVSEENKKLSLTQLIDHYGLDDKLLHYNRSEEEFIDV
UniProt Q96BD8: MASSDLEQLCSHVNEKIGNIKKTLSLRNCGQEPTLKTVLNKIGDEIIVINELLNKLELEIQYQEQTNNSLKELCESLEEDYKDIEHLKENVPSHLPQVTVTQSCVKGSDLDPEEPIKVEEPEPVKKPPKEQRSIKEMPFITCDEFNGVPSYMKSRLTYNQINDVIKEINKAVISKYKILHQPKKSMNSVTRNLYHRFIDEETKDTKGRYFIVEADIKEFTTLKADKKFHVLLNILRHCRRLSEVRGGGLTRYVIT
UniProt Q96JX3: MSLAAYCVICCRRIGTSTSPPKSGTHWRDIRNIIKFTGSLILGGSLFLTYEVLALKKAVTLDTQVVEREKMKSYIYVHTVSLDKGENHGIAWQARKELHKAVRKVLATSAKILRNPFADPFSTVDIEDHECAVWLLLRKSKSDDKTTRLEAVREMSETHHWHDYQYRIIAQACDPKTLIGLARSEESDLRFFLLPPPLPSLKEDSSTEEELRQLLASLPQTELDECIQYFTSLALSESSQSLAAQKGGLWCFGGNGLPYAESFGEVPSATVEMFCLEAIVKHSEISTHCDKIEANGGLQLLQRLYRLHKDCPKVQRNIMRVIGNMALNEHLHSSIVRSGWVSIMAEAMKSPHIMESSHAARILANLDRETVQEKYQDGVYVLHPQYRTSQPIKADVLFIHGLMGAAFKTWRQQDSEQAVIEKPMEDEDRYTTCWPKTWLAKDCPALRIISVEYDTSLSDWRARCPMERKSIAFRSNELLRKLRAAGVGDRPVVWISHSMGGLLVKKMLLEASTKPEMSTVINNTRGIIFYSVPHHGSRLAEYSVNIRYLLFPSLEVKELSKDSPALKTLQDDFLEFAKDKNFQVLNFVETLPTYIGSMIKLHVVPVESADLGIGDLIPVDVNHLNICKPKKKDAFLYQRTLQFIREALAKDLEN
UniProt Q99963: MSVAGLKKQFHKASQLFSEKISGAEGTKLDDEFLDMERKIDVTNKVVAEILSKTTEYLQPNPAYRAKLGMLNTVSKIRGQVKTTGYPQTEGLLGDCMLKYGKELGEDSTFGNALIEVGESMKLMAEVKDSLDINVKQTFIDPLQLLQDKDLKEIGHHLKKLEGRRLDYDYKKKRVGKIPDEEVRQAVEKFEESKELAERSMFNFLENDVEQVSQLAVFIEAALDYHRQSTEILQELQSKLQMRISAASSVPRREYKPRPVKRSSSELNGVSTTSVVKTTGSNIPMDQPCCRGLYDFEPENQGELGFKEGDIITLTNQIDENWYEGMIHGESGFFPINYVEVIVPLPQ

[1] = compound: C/C(=N\NC(=O)C1=CC(=CC=C1)S(=O)(=O)N2CCOCC2)/C3=C(C=CC(=C3)Cl)O
Procedure, shortened: as §1

[2] = compound: C1=CC(=CC=C1C2=NC3=C(N2)C=C(C=C3)C(=O)N)OC4=CC=C(C=C4)Cl
Procedure, shortened: as §1

[3] = compound: C1=CC2=C(C=CC(=C2)/C=C\3/C(=O)NC(=NCC4=CC=CS4)S3)N=C1
Procedure, shortened: as §1

[4] = compound: C1=CC=C2C(=C1)C3=NNC4=CC=CC(=C43)C2=O
Procedure, shortened: as §1

[5] = compound: C1CCN(C1)C(=O)NC2=CC=CC(=C2)NC3=NC=C(C(=N3)NCCC4=CN=CN4)Br
Procedure, shortened: as §1

[6] = compound: C1CN(CCC1(CC2=CC=C(C=C2)Cl)N)C3=NC=NC4=C3C=CN4
Procedure, shortened: as §1

[7] = compound: CC(=O)c1cnc2ccc(-c3cc(Cl)c(O)c(Cl)c3)nc2c1N[C@H]1CC[C@H](CN(C)C)CC1
Procedure, shortened: as §1

[8] = compound: CC(C)C1=C2N=C(C=C(N2N=C1)NCC3=CC=CC=C3)NCCCCCCN
Procedure, shortened: as §1

[9] = compound: CC1=C(C2=C(C=C1)C(=O)C3=CC=CC=C3N2CCCN)C
Procedure, shortened: as §1

[10] = compound: C1=CC(=C(C=C1Cl)C2=NC3=NC=CN=C3C(=N2)NC4=CC=NC=C4)F
Procedure, shortened: as §1

[11] = compound: C1=CC2=NC=CN=C2C=C1/C=C/3\C(=O)NC(=O)S3
Procedure, shortened: as §1

[12] = compound: C1=CC=C(C=C1)C2=NC(=C(N2)C3=CC=NC=C3)C4=CC(=C(C=C4)Cl)O
Procedure, shortened: as §1

IRAK-1-4 Inhibitor I = compound: C1COCCN1CCN2C3=CC=CC=C3N=C2NC(=O)C4=CC(=CC=C4)[N+](=O)[O-] [IRAK-1-4 Inhibitor I]
Procedure, shortened: as §1

ibrutinib = compound: C=CC(=O)N1CCC[C@@H](n2nc(-c3ccc(Oc4ccccc4)cc3)c3c(N)ncnc32)C1 [ibrutinib]
Procedure, shortened: as §1

ralimetinib = compound: CC(C)(C)Cn1c(N)nc2ccc(-c3[nH]c(C(C)(C)C)nc3-c3ccc(F)cc3)nc21 [ralimetinib]
Procedure, shortened: as §1

[13] = compound: CC(C)(O)CC(=O)NCCn1ccc2ncnc(Nc3ccc(Oc4cccc(C(F)(F)F)c4)c(Cl)c3)c21
Procedure, shortened: as §1

[14] = compound: CC(C)C[C@@H](C=O)NC(=O)[C@H](CC(C)C)NC(=O)[C@H](CC(C)C)NC(=O)OCc1ccccc1
Procedure, shortened: as §1

pinometostat = compound: CC(C)N(C[C@H]1O[C@@H](n2cnc3c(N)ncnc32)[C@H](O)[C@@H]1O)[C@H]1C[C@@H](CCc2nc3cc(C(C)(C)C)ccc3[nH]2)C1 [pinometostat]
Procedure, shortened: as §1

[15] = compound: CC1=C(C(CC(=O)N1)C2=CC=C(C=C2)C(F)(F)F)C(=O)NC3=C(C=C4C(=C3)C=NN4)F
Procedure, shortened: as §1

Measured: log2 fold change

SEPTIN7 isoform 2 (UniProt Q16181)
inactive: erlotinib 0.068 | [1] 0.091 | [2] -0.002 | [3] -0.172 | [4] 0.101 | [5] -0.172 | [6] -0.08 | [7] 0.028 | [8] 0.043 | [9] 0.019

SKA3 (UniProt Q8IX90)
inactive: erlotinib 0.044 | [10] -0.187 | [2] 0.052 | [11] 0.105 | [12] -0.122 | [5] 0.121 | [6] -0.122 | IRAK-1-4 Inhibitor I -0.065 | ibrutinib 0.039 | ralimetinib 0.142 | [13] 0.02 | [8] 0.031 | [14] 0.056 | pinometostat 0.254 | [15] 0.062 | [9] -0.077

SELENOK (UniProt Q9Y6D0)
inactive: erlotinib -0.11 | [1] -0.071 | [10] -0.031 | [2] 0.057 | [3] 0.045 | [11] 0.087 | [4] 0.049 | [5] -0.087 | [6] 0.117 | ibrutinib 0.003 | [7] -0.012 | [13] 0.057 | [8] 0.053 | [15] -0.123 | [9] 0.081

SIRT3 (UniProt Q9NTG7)
inactive: erlotinib 0.079 | [1] 0.127 | [2] 0.042 | [3] -0.214 | [12] -0.035 | [4] 0.026 | IRAK-1-4 Inhibitor I -0.001 | [7] -0.19 | ralimetinib 0.062 | [8] 0.045 | [14] 0.135 | pinometostat 0.142

SHROOM2 (UniProt Q13796)
active: [1] -1.03
inactive: erlotinib 0.266 | [10] 0.095 | [2] -0.361 | [3] 0.069 | [11] -0.021 | [4] 0.013 | [5] -0.027 | [6] 0.303 | IRAK-1-4 Inhibitor I 0.236 | ibrutinib 0.065 | [7] 0.137 | [13] 0.009 | [8] 0.155 | pinometostat -0.182 | [9] 0.072

SH2D3A (UniProt Q9BRG2)
inactive: erlotinib -0.034 | [2] 0.048 | [12] -0.006 | IRAK-1-4 Inhibitor I 0.088 | ralimetinib -0.04 | [8] -0.009 | [14] -0.089 | pinometostat 0.047 | [15] 0.045

SIMC1 (UniProt Q8NDZ2)
inactive: erlotinib 0.182 | [2] 0.057 | [8] -0.423

SERF2 (UniProt P84101)
inactive: erlotinib 0.035 | [10] -0.05 | [2] 0.042 | [11] 0.076 | [12] -0.221 | [5] 0.06 | [6] 0.041 | ibrutinib 0.018 | ralimetinib -0.115 | [13] 0.008 | [8] 0.098 | [14] 0.115 | [15] 0.032 | [9] -0.077

SETDB1 (UniProt Q15047)
inactive: erlotinib 0.22 | [1] -0.294 | [10] -0.022 | [2] -0.003 | [3] 0.158 | [12] 0.135 | [4] 0.092 | [5] -0.015 | [6] 0.208 | IRAK-1-4 Inhibitor I -0.017 | [7] -0.028 | ralimetinib 0.171 | [13] -0.358 | [8] 0.033 | [14] -0.012 | pinometostat -0.132 | [15] 0.027 | [9] 0.129

SF3B5 (UniProt Q9BWJ5)
inactive: erlotinib -0.088 | [1] -0.04 | [10] 0.319 | [2] 0.051 | [3] 0.023 | [11] 0.199 | [4] 0.107 | [5] -0.104 | [6] -0.002 | IRAK-1-4 Inhibitor I 0.055 | ibrutinib 0.127 | [7] -0.067 | [13] -0.224 | [8] 0.118 | pinometostat 0.045 | [9] 0.156

SH3BGR (UniProt P55822)
inactive: erlotinib 0.101 | [1] -0.071 | [10] -0.177 | [2] -0.089 | [3] 0 | [11] 0.131 | [4] 0.011 | ibrutinib -0.049 | [7] 0.038 | [13] -0.24 | [8] -0.102 | [15] -0.068

SELENOP (UniProt P49908)
inactive: erlotinib -0.058 | [2] 0.187 | [11] -0.064 | IRAK-1-4 Inhibitor I -0.005 | ibrutinib 0.117 | [8] 0.078 | pinometostat -0.034

SKA2 (UniProt Q8WVK7)
inactive: [12] -0.103 | ralimetinib 0.278 | [14] 0.259

SERPINB6, A0A2R8Y7E5
inactive: [10] -0.058 | [11] -0.251 | IRAK-1-4 Inhibitor I -0.079 | ibrutinib 0.02 | [13] -0.229 | pinometostat -0.04

SINHCAF (UniProt Q9NP50)
inactive: [10] -0.142 | IRAK-1-4 Inhibitor I 0.884 | [13] 1.2 | pinometostat -0.739

SFT2D1 (UniProt Q8WV19)
inactive: [1] 0.046 | [3] 0.008 | [12] -0.045 | [4] 0.158 | [7] -0.212 | ralimetinib 0.12 | [14] -0.052

SIVA1 (UniProt O15304)
inactive: [10] -0.326 | [13] -0.006

SESN1 isoform 2 (UniProt Q9Y6P5)
inactive: [5] 0.018 | [6] -0.144 | IRAK-1-4 Inhibitor I -0.007 | pinometostat 0.001 | [9] 0.06

SHC1 (UniProt P29353)
inactive: [1] 0.032 | [3] 0.083 | [4] 0.032 | [7] -0.087

SELENON (UniProt Q9NZV5)
inactive: [1] -0.231 | [3] 0.098 | [12] -0.126 | [4] -0.037 | [7] -0.084 | ralimetinib -0.039 | [14] 0.053

Eight successive entries out of the list so far:
SKA2 (UniProt Q8WVK7)
inactive: [12] -0.103 | ralimetinib 0.278 | [14] 0.259

SERPINB6, A0A2R8Y7E5
inactive: [10] -0.058 | [11] -0.251 | IRAK-1-4 Inhibitor I -0.079 | ibrutinib 0.02 | [13] -0.229 | pinometostat -0.04

SINHCAF (UniProt Q9NP50)
inactive: [10] -0.142 | IRAK-1-4 Inhibitor I 0.884 | [13] 1.2 | pinometostat -0.739

SFT2D1 (UniProt Q8WV19)
inactive: [1] 0.046 | [3] 0.008 | [12] -0.045 | [4] 0.158 | [7] -0.212 | ralimetinib 0.12 | [14] -0.052

SIVA1 (UniProt O15304)
inactive: [10] -0.326 | [13] -0.006

SESN1 isoform 2 (UniProt Q9Y6P5)
inactive: [5] 0.018 | [6] -0.144 | IRAK-1-4 Inhibitor I -0.007 | pinometostat 0.001 | [9] 0.06

SHC1 (UniProt P29353)
inactive: [1] 0.032 | [3] 0.083 | [4] 0.032 | [7] -0.087

SELENON (UniProt Q9NZV5)
inactive: [1] -0.231 | [3] 0.098 | [12] -0.126 | [4] -0.037 | [7] -0.084 | ralimetinib -0.039 | [14] 0.053

Additional entries:

SETD2 (UniProt Q9BYW2)
inactive: [1] -0.063 | [3] -0.049 | [4] -0.03 | [5] 0.019 | [6] 0.259 | [7] 0.051 | [9] -0.098

SEMA7A (UniProt O75326)
inactive: [10] -0.205 | [12] -0.045 | ralimetinib 0.101 | [13] -0.216 | [14] 0.093

SHROOM4 (UniProt Q9ULL8)
inactive: [1] -0.262 | [3] -0.165 | [4] -0.006 | [7] 0.239

SERPINA3 (UniProt P01011)
inactive: [10] 0.034 | [13] 0.041

SERPINB7 (UniProt O75635)
inactive: [1] -0.354 | [3] 0.167 | [11] -0.031 | [4] 0.06 | [5] -0.047 | [6] 0.085 | ibrutinib 0.071 | [7] -0.004 | [9] -0.012

SFR1 isoform 2 (UniProt Q86XK3)
inactive: [10] 0.026 | [11] 0.006 | [12] -0.13 | ibrutinib -0.047 | ralimetinib -0.005 | [13] -0.098 | [14] -0.032

SERPINA12 (UniProt Q8IW75)
inactive: [10] -0.131 | [5] -0.08 | [6] -0.355 | [13] 0.599 | [15] -0.735 | [9] 1.38

SHARPIN (UniProt Q9H0F6)
inactive: [15] 0.255

SF1 (UniProt H7C0N4)
inactive: [1] 0.022 | [3] -0.148 | [11] 0.076 | [12] -0.033 | [4] 0.055 | [5] -0.161 | [6] 0.006 | IRAK-1-4 Inhibitor I -0.019 | ibrutinib 0.148 | [7] -0.046 | ralimetinib -0.033 | [14] 0.258 | pinometostat -0.049 | [15] -0.04 | [9] 0.16

SHFL (UniProt Q9NUL5)
inactive: [1] -0.156 | [10] -0.094 | [3] 0.244 | [11] 0.004 | [12] 0.013 | [4] -0.116 | [5] -0.203 | [6] -0.295 | ibrutinib 0.136 | [7] -0.334 | ralimetinib 0.077 | [13] 0.088 | [14] -0.066 | [15] 0.01 | [9] 0.938

SKA1 (UniProt Q96BD8)
inactive: [10] -0.234 | [12] -0.037 | IRAK-1-4 Inhibitor I -0.146 | ralimetinib 0.071 | [13] 0.081 | [14] 0.127 | pinometostat 0.294 | [15] 0.246

SERPINB5 (UniProt P36952)
inactive: [11] -0.162 | [12] -0.197 | [5] -0.045 | [6] -0.125 | ibrutinib -0.028 | ralimetinib 0.157 | [14] -0.349 | [9] 1.9

SERAC1 (UniProt Q96JX3)
inactive: erlotinib 0.085 | [2] -0.15 | [8] 0.04 | [15] -0.163

SH3GL3 isoform 3 (UniProt Q99963)
inactive: [12] -0.014 | [5] -0.05 | [6] 0.242 | ralimetinib 0.142 | [14] 0.12 | [9] -0.124
